Experimental data reported in article PMC4686830, “Ankyrin-mediated self-protection during cell invasion by the bacterial predator Bdellovibrio bacteriovorus” (Nature Communications, 2015).
No constants are given. Whether binding was seen depends on the method and setting. Some entries that bind do so weakly or less than the wild type. Where a sequence is shown, tags or fusion partners need not be part of it.

Legend:
[1] = biological target: T1, Bd0816 DD-endopeptidase S58A (K26M start, C-terminal H8 tag) (Bdellovibrio bacteriovorus HD100) (UniProt Q6MPN2); assay: crystal structure; co-expressed and co-purified complexes, hanging drop at 18 °C; molecular replacement; both purified
T1 sequence: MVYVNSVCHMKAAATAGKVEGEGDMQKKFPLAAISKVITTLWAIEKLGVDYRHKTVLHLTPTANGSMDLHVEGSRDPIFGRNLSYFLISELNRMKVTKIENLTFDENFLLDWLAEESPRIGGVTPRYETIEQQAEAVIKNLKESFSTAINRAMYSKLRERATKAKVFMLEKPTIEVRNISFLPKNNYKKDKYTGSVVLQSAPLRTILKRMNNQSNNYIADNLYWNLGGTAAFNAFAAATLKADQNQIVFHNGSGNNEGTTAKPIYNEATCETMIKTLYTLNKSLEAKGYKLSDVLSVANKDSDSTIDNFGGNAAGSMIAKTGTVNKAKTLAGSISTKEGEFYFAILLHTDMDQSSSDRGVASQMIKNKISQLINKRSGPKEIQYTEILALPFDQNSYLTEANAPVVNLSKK

[2] = biological target: T2, Bd3459 DD-endopeptidase, new construct starting post signal peptide with K38M, C-terminal H8 tag (Bdellovibrio bacteriovorus HD100) (UniProt Q6MHT0); assay: as above
T2 sequence: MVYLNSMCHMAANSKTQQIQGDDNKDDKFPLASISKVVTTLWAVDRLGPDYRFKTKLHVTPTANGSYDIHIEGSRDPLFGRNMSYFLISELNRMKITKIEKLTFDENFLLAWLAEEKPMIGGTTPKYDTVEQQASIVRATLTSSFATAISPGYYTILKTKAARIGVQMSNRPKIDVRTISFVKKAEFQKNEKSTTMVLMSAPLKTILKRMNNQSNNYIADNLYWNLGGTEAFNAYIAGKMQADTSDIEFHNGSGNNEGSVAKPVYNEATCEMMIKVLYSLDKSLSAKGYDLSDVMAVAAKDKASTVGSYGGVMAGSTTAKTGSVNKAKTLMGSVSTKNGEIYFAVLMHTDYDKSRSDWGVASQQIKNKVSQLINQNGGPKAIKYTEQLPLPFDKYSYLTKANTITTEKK

[3] = biological target: T3, Bd3459 DD-endopeptidase (K38M start, C-terminal H8 tag) acylated with penicillin G in crystals of its complex with Bd3460 (Bdellovibrio bacteriovorus HD100) (UniProt Q6MHT0); assay: crystal structure; pre-grown crystals of the Bd3459:Bd3460 complex incubated with reservoir solution with 2 mM penicillin G for one hour; both purified
T3 sequence (chain, active site serine acylated by penicillin G): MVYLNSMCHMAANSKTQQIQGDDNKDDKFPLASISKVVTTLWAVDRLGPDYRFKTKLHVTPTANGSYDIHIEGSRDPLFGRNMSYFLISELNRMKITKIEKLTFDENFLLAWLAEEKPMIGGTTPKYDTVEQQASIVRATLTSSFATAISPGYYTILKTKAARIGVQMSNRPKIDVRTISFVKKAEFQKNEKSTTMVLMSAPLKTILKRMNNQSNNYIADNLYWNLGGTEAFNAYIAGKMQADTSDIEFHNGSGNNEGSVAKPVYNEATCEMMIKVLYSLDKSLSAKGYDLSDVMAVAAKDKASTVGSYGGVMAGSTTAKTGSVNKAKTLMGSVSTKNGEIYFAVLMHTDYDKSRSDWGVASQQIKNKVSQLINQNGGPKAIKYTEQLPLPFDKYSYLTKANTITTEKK

Measured: binding

B1: Bd3460, exported domain (amino acids 26-220), untagged, co-expressed with an endopeptidase (natural protein, Bdellovibrio bacteriovorus HD100, UniProt Q6MHS9 25-220, looked up)
chain: MSGKSSKALNEAAEQGDLAKVKNLVQKNKIDLNAQDETGMTPLMNAAMGGNLDIVKFLLSKKVNLELKNNGGETALAFAVTNDAYDVAEELIKAGANVDIIVAGDEGDTLFMRAAQNNKKTAESILAKNKSLINKANTLGETALFAVARYGTPADIDFLIKKGADLKLKNKKGQTALDVAKEASNQDTAKALSKKK
notes: The only change is the start methionine in place of A25; also called untagged Bd3460; source: E. coli T7 express, co-expressed from pCDF-Duet1 with the H8-tagged endopeptidase, co-purified (His column)
binds: all assays above
